No constants are given. Whether binding was seen depends on the method and setting. Binding seen in cells or lysates may run through a third protein. Some entries that bind do so weakly or less than the wild type. Tags and fused reporters may be left off the sequences shown.
Target: Rpn11 with a protein A affinity purification tag (yeast) (UniProt P43588)
Experiment: pull-down; proteasomes purified from lysates of yeast grown in YPD by the protein A tag on Rpn11 with IgG affinity resin; eluate on SDS-PAGE, Coomassie brilliant blue

Sequences of proteins named here, by UniProt entry; tags and fusion partners are left off.
UniProt P43588: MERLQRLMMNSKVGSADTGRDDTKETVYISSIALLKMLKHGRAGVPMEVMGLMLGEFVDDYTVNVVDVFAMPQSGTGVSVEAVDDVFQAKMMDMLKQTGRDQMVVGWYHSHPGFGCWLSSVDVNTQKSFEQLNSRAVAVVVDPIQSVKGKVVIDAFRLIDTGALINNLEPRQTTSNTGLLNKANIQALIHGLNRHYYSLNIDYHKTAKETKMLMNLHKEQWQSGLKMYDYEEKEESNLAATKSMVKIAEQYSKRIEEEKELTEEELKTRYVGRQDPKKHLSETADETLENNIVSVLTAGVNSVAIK

binding: binds
B1: β5 (Pre2) subunit of the proteasome core particle with a C-terminal GFP tag (protein, UniProt P30656 76-287)
chain: TTTLAFRFQGGIIVAVDSRATAGNWVASQTVKKVIEINPFLLGTMAGGAADCQFWETWLGSQCRLHELREKERISVAAASKILSNLVYQYKGAGLSMGTMICGYTRKEGPTIYYVDSDGTRLKGDIFCVGSGQTFAYGVLDSNYKWDLSVEDALYLGKRSILAAAHRDAYSGGSVNLYHVTEDGWIYHGNHDVGELFWKVKEEEGSFNNVIG

— article PMC7582879
